# Test results: PMC8384837
# This is one part of the list. At the low end of the ranking the order means little.
# Target: T1, PUM1 PUF domain R3-THE R4-TFR C935T + R936H + Q939E + N971T + H972F + Q975R (UniProt Q14671)
# T1 sequence: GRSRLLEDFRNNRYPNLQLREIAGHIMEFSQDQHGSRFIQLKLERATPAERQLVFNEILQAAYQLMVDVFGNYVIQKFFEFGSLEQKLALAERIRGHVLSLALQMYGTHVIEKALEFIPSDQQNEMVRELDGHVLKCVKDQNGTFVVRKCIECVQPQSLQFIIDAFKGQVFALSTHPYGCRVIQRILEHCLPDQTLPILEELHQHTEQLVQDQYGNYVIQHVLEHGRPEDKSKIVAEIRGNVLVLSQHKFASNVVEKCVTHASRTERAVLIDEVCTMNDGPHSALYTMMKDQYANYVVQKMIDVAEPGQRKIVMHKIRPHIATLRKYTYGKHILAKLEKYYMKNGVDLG
# Settings: yeast three-hybrid, YBZ-1, SC-Leu-His + 0.5 mM 3-AT, 4 days
row,Sequence,binding signal (log2 enrichment (interaction score))
1,GGCUAGAACUAGUGGAUCCCCCGGCGCCCGGCGGCUCGAGCCCGGGUAAGUUUACGAGGUCUGCAUGCCGCCGGGCGCCAUGCCUGCAGGUCGACUCUAGAAAACAUG,-7.41
2,GGCUAGAACUAGUGGAUCCCCCGGCGCCCGGCGGCUCGAGCCCGGGUAAGUUUAAGAAGUCUGCAUGCCGCCGGGCGCCAUGCCUGCAGGUCGACUCUAGAAAACAUG,-6.37
3,GGCUAGAACUAGUGGAUCCCCCGGCGCCCGGCGGCUCGAGCCCGGGUAAGUUGACGUCGUCUGCAUGCCGCCGGGCGCCAUGCCUGCAGGUCGACUCUAGAAAACAUG,-6.53
4,GGCUAGAACUAGUGGAUCCCCCGGCGCCCGGCGGCUCGAGCCCGGGUAAGUCGAAGUAGUCUGCAUGCCGCCGGGCGCCAUGCCUGCAGGUCGACUCUAGAAAACAUG,-6.87
5,GGCUAGAACUAGUGGAUCCCCCGGCGCCCGGCGGCUCGAGCCCGGGUAAGGUUACGUAGUCUGCAUGCCGCCGGGCGCCAUGCCUGCAGGUCGACUCUAGAAAACAUG,-6.88
6,GGCUAGAACUAGUGGAUCCCCCGGCGCCCGGCGGCUCGAGCCCGGGUAAGUUUAAAUAGUCUGCAUGCCGCCGGGCGCCAUGCCUGCAGGUCGACUCUAGAAAACAUG,-6.03
7,GGCUAGAACUAGUGGAUCCCCCGGCGCCCGGCGGCUCGAGCCCGGGUAAGUGUAAAUGGUCUGCAUGCCGCCGGGCGCCAUGCCUGCAGGUCGACUCUAGAAAACAUG,-6.95
8,GGCUAGAACUAGUGGAUCCCCCGGCGCCCGGCGGCUCGAGCCCGGGUAAGUGUACGAAGUCUGCAUGCCGCCGGGCGCCAUGCCUGCAGGUCGACUCUAGAAAACAUG,-5.17
